Sequences of proteins named here, by UniProt entry; tags and fusion partners are left off.
UniProt Q0JBA9, entry or part of it: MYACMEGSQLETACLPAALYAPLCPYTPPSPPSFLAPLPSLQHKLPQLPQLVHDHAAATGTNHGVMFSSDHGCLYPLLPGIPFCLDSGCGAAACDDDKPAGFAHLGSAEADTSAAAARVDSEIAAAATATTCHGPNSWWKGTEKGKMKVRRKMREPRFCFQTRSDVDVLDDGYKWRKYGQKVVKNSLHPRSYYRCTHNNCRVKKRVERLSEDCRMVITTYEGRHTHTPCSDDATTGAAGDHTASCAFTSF

The other results are listed elsewhere or left out.
What follows are sequences tested against OsWRKY34 (Oryza sativa, UniProt Q0JBA9 1-250) (assay: protein-binding microarray (RPBM); PBS, 2% BSA, 51.3 ng/ul salmon testes DNA, 50 uM zinc acetate, 200 nM TF, 25 C, 1 h; high values mean tight binding). Conditions: protein: recombinant; tags: N-terminal polyhistidine and DsRed monomer fusion (pET32a); label: CyDye5-dUTP incorporated in the synthesized complementary strand; 3' TTTTT single-stranded linker to array surface; dsDNA, one strand shown.
Summary of the method: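 Transcription factors were made in E. coli BL21-CodonPlus as N-terminal fusions to a polyhistidine tag and DsRed, then purified on Ni–NTA. After primer extension with Cy5-dUTP and blocking with 2% BSA, a custom Agilent array was exposed for 1 h at 25 °C to 200 nM protein in PBS, 2% BSA, salmon testes DNA and 50 µM zinc acetate. Washed arrays were scanned on an Axon 4000B, and the binding signal is per-feature fluorescence intensity in arbitrary units.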
For “CTTCGCCGTCTGACCCGTCAGCCACCATGCGCCGTCTCCGCGGAGTCACCTAGTGCAG”, the binding signal was 11700 fluorescence intensity (a.u.). With “TCGTCGATGTCACCGCCACCACCGTCGTCATCGCTGCCTTCGGAGTCACCTAGTGCAG” the binding signal was 8080 fluorescence intensity (a.u.). “TGCATCAATGGTGGCTTGGCTTTCATGTCGCTCCTTGTCGCGGAGTCACCTAGTGCAG” was tested, and the binding signal was 9070 fluorescence intensity (a.u.). For “TCTGATATGACACGCTAAAACTTTTTGTCTCGCGAGCTAACGGAGTCACCTAGTGCAG”, the binding signal was 8320 fluorescence intensity (a.u.). In the case of “TGTTTTTATCTTTGATTGTACTATTGTCTTGTTCATCTGTCGGAGTCACCTAGTGCAG”, the binding signal is reported as 13100 fluorescence intensity (a.u.). With “TGCCGTGGGATGGGGTTGCGGGAGGAGGAGGGTGCTACTACGGAGTCACCTAGTGCAG” the binding signal was 17000 fluorescence intensity (a.u.). With “ACAGCACGCCATCCTCGCTCGGCGTCGCATCGCCATCATCCGGAGTCACCTAGTGCAG” the binding signal was 9200 fluorescence intensity (a.u.). In the case of “GGCTGTGTGCTTTCTTCTTTGGGCTCAGTGGATCGGTAAACGGAGTCACCTAGTGCAG”, the binding signal is reported as 12500 fluorescence intensity (a.u.). With “CTTATTTGGTCTGGATTAATTGTCGATCAAGTCATTATCGCGGAGTCACCTAGTGCAG” the binding signal was 8170 fluorescence intensity (a.u.). In the case of “AATTTTTGTCTCTATAGGGTTTGGTTTCGGTCCGAGGATTCGGAGTCACCTAGTGCAG”, the binding signal is reported as 9610 fluorescence intensity (a.u.). With “CGATCCGTCCGTCCATCTCCTGCTCCTGCAATGCTAGCTTCGGAGTCACCTAGTGCAG” the binding signal was 8840 fluorescence intensity (a.u.). In the case of “TCTTCATCCATATACTCGATCGATCCGAACTTTATCATGACGGAGTCACCTAGTGCAG”, the binding signal is reported as 8280 fluorescence intensity (a.u.). For “GATGGTGTGGATTGAGCTCTGTATACGTCCCTTCAAGATTCGGAGTCACCTAGTGCAG”, the binding signal was 9220 fluorescence intensity (a.u.). For “ATGCATGTTAATTAGTCTGTCACTGATCACTTCATCCCATCGGAGTCACCTAGTGCAG”, the binding signal was 9480 fluorescence intensity (a.u.). For “CTATAATATATATAGCGCACCCTTGCATCAGTTAGTCAACCGGAGTCACCTAGTGCAG”, the binding signal was 8680 fluorescence intensity (a.u.). “TGTCGTCGTCCTCGCCACCGGATTGTCCCGCCGACGTAGCCGGAGTCACCTAGTGCAG” was tested, and the binding signal was 8160 fluorescence intensity (a.u.). For “TCATTCTTCTTATGATATTTTTCTCCTTGCACCTTCAATTCGGAGTCACCTAGTGCAG”, the binding signal was 9180 fluorescence intensity (a.u.). “TGAAGCAAGCACCCACATTTCACCATGACACCACCACCACCGGAGTCACCTAGTGCAG” was tested, and the binding signal was 8480 fluorescence intensity (a.u.). In the case of “GACAAATCTCAGTTTTTCATGTGCCTTTATTATGTCTTCTCGGAGTCACCTAGTGCAG”, the binding signal is reported as 12800 fluorescence intensity (a.u.). With “GCTTCTTCAATGCTATCCCGTCGACCGCCGCTCGCCGGCTCGGAGTCACCTAGTGCAG” the binding signal was 8560 fluorescence intensity (a.u.). “GTTTCCGGGGTGACATGTGCATATATCACTTTTGGTTCCGCGGAGTCACCTAGTGCAG” was tested, and the binding signal was 9190 fluorescence intensity (a.u.). With “GCCCGCTTTTAGTCCGCAGCTTACACTTGTTTCGTCTCATCGGAGTCACCTAGTGCAG” the binding signal was 12600 fluorescence intensity (a.u.). For “AATTTTTTCATGAACTTTCTCTTGTCATGCTTGATGTGTACGGAGTCACCTAGTGCAG”, the binding signal was 8400 fluorescence intensity (a.u.). With “AGAAAAACACGAGGTGAAATCTCATACTTATTTTCCTTCACGGAGTCACCTAGTGCAG” the binding signal was 8210 fluorescence intensity (a.u.). For “CTGTATAAACTTCTAACCTCTGATTTCTTTCACTACTGATCGGAGTCACCTAGTGCAG”, the binding signal was 8200 fluorescence intensity (a.u.). For “CCTTTATCGTCTCAACTATTGTAAACATATGGTCTCTAAACGGAGTCACCTAGTGCAG”, the binding signal was 8220 fluorescence intensity (a.u.). In the case of “CTTCTCGGTTGTTCTCTTTGTTCCGTGATGGCTTTTTTGGCGGAGTCACCTAGTGCAG”, the binding signal is reported as 11600 fluorescence intensity (a.u.). In the case of “ATATAGCTAAGTCCTAATCCATTTTCAACCCTTTGTTAATCGGAGTCACCTAGTGCAG”, the binding signal is reported as 9760 fluorescence intensity (a.u.). For “TATTGGCTTAGATCGCTGACTGTTATTCATTATCCTTTCTCGGAGTCACCTAGTGCAG”, the binding signal was 9800 fluorescence intensity (a.u.). For “ACCTTCTCGATTCACCGCGCTTATGCGGCCACTGCACAAACGGAGTCACCTAGTGCAG”, the binding signal was 11400 fluorescence intensity (a.u.). With “TCTAACTCGTTTTACCTATCTTCTCTAATCCTCCTCAAACCGGAGTCACCTAGTGCAG” the binding signal was 9550 fluorescence intensity (a.u.). For “CGATCAACGTTTGACTATTTGTTTTATTCAAAATTTTTGTCGGAGTCACCTAGTGCAG”, the binding signal was 9460 fluorescence intensity (a.u.). With “TGACATGGTATATCTTCTATTTAGACATGATGATCTTTTACGGAGTCACCTAGTGCAG” the binding signal was 9610 fluorescence intensity (a.u.). In the case of “GCCTCCGCCTCCGCCCGCCGCCGACGACTCTCCGACTCCCCGGAGTCACCTAGTGCAG”, the binding signal is reported as 10100 fluorescence intensity (a.u.). With “CATGGCGACCTCGCCTCGTGTTCCCTTTCCTAACCGCCGCCGGAGTCACCTAGTGCAG” the binding signal was 9860 fluorescence intensity (a.u.). “TGTTAAGAAAAAAAAAATAGAAAAACGTCTCAATTGTAAGCGGAGTCACCTAGTGCAG” was tested, and the binding signal was 8170 fluorescence intensity (a.u.). In the case of “AGGTTCTTGACTCACCAGACCCATTTGTTGCCTCAGCCACCGGAGTCACCTAGTGCAG”, the binding signal is reported as 8620 fluorescence intensity (a.u.). For “AGCCAGAGGTACAAGTGGTGCCTGATGATATATACTTGTTCGGAGTCACCTAGTGCAG”, the binding signal was 8460 fluorescence intensity (a.u.). In the case of “ATTGGGCTCTGTTTAATTTGTGGTGGGCCGATGTCAAAGGCGGAGTCACCTAGTGCAG”, the binding signal is reported as 9890 fluorescence intensity (a.u.). For “ATTTTCGTCGCGTCAACTTATATACGAAAGTTAATTAATGCGGAGTCACCTAGTGCAG”, the binding signal was 8160 fluorescence intensity (a.u.). With “GGGGTTTGCTGCAATTTGTTGTGTTCGTCGGCGGCGAGCGCGGAGTCACCTAGTGCAG” the binding signal was 10800 fluorescence intensity (a.u.). “GGCGCCTGGAGGCCTCCGTCGTTTGTGCCGCCCCGTCGCCCGGAGTCACCTAGTGCAG” was tested, and the binding signal was 8780 fluorescence intensity (a.u.).
